In the supplement of paper PMC6331611 one finds normalized growth data, which are given here for 46 molecules.

± gives the standard deviation of the averaged measurements. The full ranking holds about 1,600 compounds; the median of “normalized growth (OD600, IQM-normalized) in LPM” is about 1, and the lowest 2% start at about 0.014. The list shows a part of the results.

The subject of the test is Salmonella enterica serovar Typhimurium SL1344. In words: normalized growth (OD600, IQM-normalized) in LPM (fraction of plate interquartile mean); higher = more bacterial growth (less inhibition). The note with it: LPM pH 5.8; 10 µM; 16 h.
In turn, `C[C@H]1O[C@@H](n2cc(F)c(=O)[nH]c2=O)[C@H](O)[C@@H]1O` displayed a normalized growth of 0.412 ± 0.11.
Take `CCN1CCCC(OC(=O)C(c2ccccc2)c2ccccc2)C1` (stereo unspecified): the normalized growth came to 1.07 ± 0.016.
For `Nc1ccc(C(=O)O)cc1`, the normalized growth stood at 1.04 ± 0.028.
With `CCCCCNC(=N)N/N=C/c1c[nH]c2ccc(OC)cc12` the figure was 1.09 ± 0.12; with `COc1c(C)c2c(c(O)c1C/C=C(\C)CCC(=O)O)C(=O)OC2`, 1.068 ± 0.0082; with `O=C(Oc1ccccc1C(=O)O)c1ccccc1O`, 0.848 ± 0.029.
Regarding `O=C(O)c1ccc(S(=O)(=O)N(Cl)Cl)cc1`, the normalized growth stood at 0.999 ± 0.013.
To `NCCNCCNCCN` belongs 0.995 ± 0.047; to `CCCC1O[C@@H]2C[C@H]3[C@@H]4CCC5=CC(=O)C=C[C@]5(C)[C@H]4[C@@H](O)C[C@]3(C)[C@]2(C(=O)CO)O1` (stereo partly specified), 1.01 ± 0.026.
In the case of `Nc1nc(N)c2nc(CNc3ccc(C(=O)N[C@@H](CCC(=O)O)C(=O)O)cc3)cnc2n1`, the normalized growth is 1.14 ± 0.045.
Molecule `CC(C(=O)O)c1cccc(C(=O)c2ccccc2)c1` (stereo unspecified) had a normalized growth of 1 ± 0.056.
Turning to `CCOC(=O)c1ncn2c1CN(C)C(=O)c1cc(F)ccc1-2`, the normalized growth came to 0.93 ± 0.11.
On to `O=NN(CCCl)C(=O)NCCCl`, for which the normalized growth came out at 1.06 ± 0.097.
With `CCOc1cc(CC(=O)N[C@@H](CC(C)C)c2ccccc2N2CCCCC2)ccc1C(=O)O` the figure was 1.02 ± 0.044; with `C#C[C@]1(O)CC[C@H]2[C@@H]3CCc4cc(O)ccc4[C@H]3CC[C@@]21C`, 1.3 ± 0.13.
The molecule `CC(C)NCC(O)c1ccc(O)c(O)c1` (stereo unspecified) came in with a normalized growth of 0.911 ± 0.013.
For `COc1ccc2[nH]c([S@@+]([O-])Cc3ncc(C)c(OC)c3C)nc2c1`, the normalized growth stood at 1.05 ± 0.017.
`CCCCCN(CCCCC)C(=O)C(CCC(=O)O)NC(=O)c1ccc(Cl)c(Cl)c1` (stereo unspecified) gave a normalized growth of 1.03 ± 0.015.
Molecule `Nc1nc2c(ncn2COCCO)c(=O)[nH]1` yielded a normalized growth of 1.02 ± 0.032.
As to `COc1ccc(C(=O)CC(=O)c2ccc(C(C)(C)C)cc2)cc1`, the normalized growth was 0.851 ± 0.1.
`COc1ccc(C(=O)c2ccccc2)c(O)c1` registered a normalized growth of 0.932 ± 0.015.
To `COc1c(N2C[C@@H]3CCCN[C@@H]3C2)c(F)cc2c(=O)c(C(=O)O)cn(C3CC3)c12` belongs 0.0131 ± 0.0045; to `COc1ncnc(NS(=O)(=O)c2ccc(N)cc2)c1OC`, 1.02 ± 0.13; to `CC(=O)OCC(=O)[C@@]1(O)[C@H](C)C[C@H]2[C@@H]3CCC4=CC(=O)C=C[C@]4(C)[C@@]3(F)[C@@H](O)C[C@@]21C`, 0.985 ± 0.081.
With `CCN(CC)CCOc1ccc2c(c1)C(=O)c1cc(OCCN(CC)CC)ccc1-2`, the normalized growth was found to be 1.02 ± 0.083.
In turn, `CC1(C)O[C@@H]2C[C@H]3[C@@H]4CCC5=CC(=O)C=C[C@]5(C)[C@H]4[C@@H](O)C[C@]3(C)[C@]2(C(=O)CO)O1` came in with a normalized growth of 0.945 ± 0.056.
For `O=C(CCCCCCC(=O)Nc1ccccc1)NO`, the normalized growth was 1.21 ± 0.3.
Molecule `CC[C@H]1OC(=O)C[C@@H](O)[C@H](C)[C@@H](O[C@@H]2O[C@H](C)[C@@H](O[C@H]3C[C@@](C)(O)[C@@H](O)[C@H](C)O3)[C@H](N(C)C)[C@H]2O)[C@@H](CC=O)C[C@@H](C)C(=O)/C=C/C(C)=C/[C@@H]1CO[C@@H]1O[C@H](C)[C@@H](O)[C@@H](OC)[C@H]1OC` showed a normalized growth of 1.07 ± 0.032.
`CCCCC(CC)COC(=O)C(C#N)=C(c1ccccc1)c1ccccc1` (stereo unspecified): the normalized growth came to 0.82 ± 0.0086.
In turn, `Nc1c2c(nc3ccccc13)CCCC2` gave a normalized growth of 0.962 ± 0.022.
With `C/C(=C(\CCOP(=O)(O)O)SC(=O)c1ccccc1)N(C=O)Cc1cnc(C)nc1N`, the normalized growth turned out to be 1.1 ± 0.045.
Turning to `CN(Cc1cnc2nc(N)nc(N)c2n1)c1ccc(C(=O)NC(CCC(=O)O)C(=O)O)cc1` (racemic), the normalized growth was found to be 0.665 ± 0.054.
With `C=C[C@@]1(C)CC(=O)[C@]2(O)[C@@]3(C)[C@@H](O)CCC(C)(C)[C@@H]3[C@H](O)[C@H](OC(C)=O)[C@@]2(C)O1` the figure was 1.07 ± 0.019; with `CC1(C)S[C@@H]2[C@H](NC(=O)C(C(=O)O)c3ccccc3)C(=O)N2[C@H]1C(=O)O` (stereo partly specified), 1.07 ± 0.036; with `CCN(CC)CCOC(=O)C(Cc1cccc2ccccc12)CC1CCCO1` (stereo unspecified), 0.989 ± 0.099.
For `C[C@H](N)[C@H](O)c1cccc(O)c1`, the normalized growth turned out to be 0.787 ± 0.045.
`O=C1CN(/N=C/c2ccc([N+](=O)[O-])o2)C(=O)N1` had a normalized growth of 1.04 ± 0.024.
Molecule `Cc1ccccc1OCC(O)CO` (stereo unspecified) had a normalized growth of 0.973 ± 0.059.
The molecule `CC(C)(C)C(=O)C(Oc1ccc(Cl)cc1)n1ccnc1` (stereo unspecified) had a normalized growth of 1.13 ± 0.038.
For the molecule `CN[C@@H]1[C@@H](O)[C@@H](O[C@@H]2[C@@H](O)[C@H](O[C@H]3OC(CN)=CC[C@H]3N)[C@@H](N)C[C@H]2N)OC[C@]1(C)O`, the normalized growth was 0.947 ± 0.036.
`Cc1cc(NS(=O)(=O)c2ccc(N)cc2)no1` showed a normalized growth of 1.01 ± 0.022.
As for `CC1(C)S[C@@H]2[C@H](NC(=O)[C@H](C(=O)O)c3ccsc3)C(=O)N2[C@H]1C(=O)O`, the normalized growth stood at 1.01 ± 0.022.
For `CC1(O)CCC(C(C)(C)O)CC1` (stereo unspecified), the normalized growth is 0.885 ± 0.026.
The molecule `CCOC(=O)n1ccn(C)c1=S` showed a normalized growth of 0.979 ± 0.083.
In the case of `CC(C)OC(=O)CCC/C=C\C[C@@H]1[C@@H](/C=C/[C@@H](O)COc2cccc(C(F)(F)F)c2)[C@H](O)C[C@@H]1O`, the normalized growth was 1.032 ± 0.0058.
The molecule `O=C1CN(/N=C/c2ccc(-c3ccc([N+](=O)[O-])cc3)o2)C(=O)N1` yielded a normalized growth of 1.07 ± 0.017.
